According to patent US7910622B2, “Modulation of bacterial quorum sensing with synthetic ligands” (Wisconsin Alumni Research Foundation, priority 2007, dated 2011):
The match of structure and compound is tentative.

Sequences of proteins named here, by UniProt entry; tags and fusion partners are left off.
UniProt P35327, whole entry: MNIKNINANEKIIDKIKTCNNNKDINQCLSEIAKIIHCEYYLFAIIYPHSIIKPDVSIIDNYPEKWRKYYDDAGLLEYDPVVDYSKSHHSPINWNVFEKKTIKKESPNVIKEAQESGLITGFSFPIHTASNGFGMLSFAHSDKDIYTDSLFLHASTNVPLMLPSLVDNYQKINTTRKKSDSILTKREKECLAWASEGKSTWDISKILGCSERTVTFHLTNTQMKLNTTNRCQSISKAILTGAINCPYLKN

Assays:
LuxR [1] = biological target: T1, LuxR (Aliivibrio fischeri, UniProt P35327); settings: 5 μM synthetic ligand against 5 μM OHHL; V. fischeri ES114 (Δ-luxI); normalized to OHHL
LuxR [2] = biological target: T1, LuxR; settings: 200 μM ligand; V. fischeri ES114 (Δ-luxI); normalized to OHHL

## O=C(CCc1ccc(Br)cc1)N[C@H]1CCOC1=O
LuxR [1]
  V. fischeri-LuxR Inhibition [%]: 80%
LuxR [2]
  V. fischeri-LuxR Activation [%]: 2%
